The results in this text go back to PMC9166773, “Latrophilin-2 is a novel receptor of LRG1 that rescues vascular and neurological abnormalities and restores diabetic erectile function” (Experimental & Molecular Medicine, 2022).

Results are given in words; binding and its absence hold for the method and conditions named. Tags and fused reporters may be left off the sequences shown.

One assay has as its target Lec/Olf domain of LPHN1. Put plainly: solid-phase binding assay; LRG1 and recombinant extracellular domains of LPHN2 (and Lec/Olf of LPHN1, LPHN3); who was immobilised and conditions not told in the text shown; both purified.
For another assay, the target named is Lec/Olf domain of LPHN3. The assay is described as above.

B1: Leucine-rich alpha-2-glycoprotein 1 (LRG1), recombinant tag-free human LRG1 (ligand, UniProt P02750 36-347, looked up)
chain: VTLSPKDCQVFRSDHGSSISCQPPAEIPGYLPADTVHLAVEFFNLTHLPANLLQGASKLQELHLSSNGLESLSPEFLRPVPQLRVLDLTRNALTGLPPGLFQASATLDTLVLKENQLEVLEVSWLHGLKALGHLDLSGNRLRKLPPGLLANFTLLRTLDLGENQLETLPPDLLRGPLQLERLHLEGNKLQVLGKDLLLPQPDLRYLFLNGNKLARVAAGAFQGLRQLDMLDLSNNSLASVPEGLWASLGQPNWDMRDGFDISGNPWICDQNLSDLYRWLQAQKDKMFSQNDTRCAGPEAVKGQTLLAVAKSQ
notes: human LRG1, residues V36-Q347; In the TriCEPS capture LRG1 was coupled to the TriCEPS reagent; Residues of the thrombin site may remain after cleavage; also called recombinant LRG1; soluble LRG1; not shown: Fc (human IgG), C-terminal, cleaved
Take B1: the binding result with Lec/Olf domain of LPHN1 and in the assay with Lec/Olf domain of LPHN3 was “no binding” each time.
